In this series the target is T1, MdbZIP44 (Malus domestica 'Oregon Spur Delicious') (UniProt A0A498J4E9).
T1 sequence (looked up, limits assumed): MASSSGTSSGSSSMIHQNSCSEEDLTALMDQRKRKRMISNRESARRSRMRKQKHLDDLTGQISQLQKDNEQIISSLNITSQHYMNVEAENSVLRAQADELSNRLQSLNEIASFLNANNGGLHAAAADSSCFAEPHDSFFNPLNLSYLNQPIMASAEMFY
As to the kind of experiment: EMSA. The note with it: unlabeled same-sequence probe competes; Binding 25°C, 30 min; 6% native PAGE in 0.5x TBE, 4°C, 1 h; binding buffer, salt and pH not stated; recombinant protein; protein details: His (pET-32a); label: 5'-biotin. On the technique in general: A gel shift assay detects complexes by their altered migration in electrophoresis.

Construct, isoform or probe ends are uncertain for at least one entry. At least one verdict rests on a figure or table, not on a statement of the authors. Protein sequences can lack the tags named with them.

Turning to “AAATGGACACGTGGGCAGGGA (double strand) [Mdα-GP2 promoter G-box probe (assigned to Mdα-GP2-G1)]”, the binding result was “binds”.

The values above are taken from article PMC11079487.
